# The list does not hold the whole screen: it is rich in T/C values a quarter to a half above the control, in often repeated tests (any T/C) and in doses without a T/C. Other doses and runs of a compound stand elsewhere. T/C gives the treated animals as a percentage of the vehicle group. Some entries give survivors of the animals treated and no T/C: the source files T/C as zero there, which appears to mark a toxic dose or a test without result, not a measured value. Some doses without a T/C left all or most animals alive at the check, yet need not have been tolerated: the source hardly ever lists a survival T/C far under the control, and the zero likely stands for such cases as well. Survivors were counted at the toxicity check, usually on the fifth day, unless a day is given; later deaths do not show. Schedules are NCI's codes, taken here to give the interval after Q, in days (D) or hours (H), and the number of doses after X. Some structures stand for samples that the source files as different forms (salt, stereo form or complex); doses refer to the form tested. For survival time, this PubChem deposit counts one and a half times the control or more as active, and values a quarter to a half above the control carry no call in these data; other NCI protocols may use other cut-offs.
# Test system: L1210 leukemia ip in BDF1 mice, survival T/C
# Test: NCI In Vivo Anticancer Drug Screen. Data for tumor model L1210 Leukemia (intraperitoneal) in B6D2F1 (BDF1) mice
# Details: T/C endpoint: mean survival time, higher T/C = longer survival
compound,measurement,setting,value
CCCCCCCC[N+](C)(CCCCCCCC)CCCCCCCC,survivor count,"dose: 0.39 mg/kg/injection, schedule: Q04DX003 (ip), vehicle: acetone",4 of 6
same,survivor count,"dose: 0.78 mg/kg/injection, schedule: Q04DX003 (ip), vehicle: acetone",1 of 6
same,survivor count,"dose: 0.95 mg/kg/injection, schedule: Q01DX009 (ip), vehicle: saline",3 of 6
same,survivor count,"dose: 1.45 mg/kg/injection, schedule: Q01DX009 (ip), vehicle: saline",5 of 6
same,survivor count,"dose: 1.56 mg/kg/injection, schedule: Q01DX001 (ip), vehicle: acetone",1 of 6
same,survivor count,"dose: 1.56 mg/kg/injection, schedule: Q01DX001 (ip), vehicle: saline",2 of 3
same,survivor count,"dose: 2.0 mg/kg/injection, schedule: Q01DX015 (ip), vehicle: saline",1 of 6
same,survivor count,"dose: 2.17 mg/kg/injection, schedule: Q01DX009 (ip), vehicle: saline",0 of 6
same,survivor count,"dose: 3.12 mg/kg/injection, schedule: Q01DX001 (ip), vehicle: acetone",0 of 6
same,survivor count,"dose: 3.12 mg/kg/injection, schedule: Q01DX001 (ip), vehicle: saline",2 of 3
same,survivor count,"dose: 4.0 mg/kg/injection, schedule: Q01DX015 (ip), vehicle: saline",0 of 6
same,survivor count,"dose: 6.25 mg/kg/injection, schedule: Q01DX001 (ip), vehicle: acetone",1 of 6
same,survivor count,"dose: 6.25 mg/kg/injection, schedule: Q01DX001 (ip), vehicle: saline with Tween-80",0 of 6
same,survivor count,"dose: 6.25 mg/kg/injection, schedule: Q01DX001 (ip), vehicle: saline",0 of 3
same,survivor count,"dose: 12.5 mg/kg/injection, schedule: Q01DX001 (ip), vehicle: saline with Tween-80",0 of 6
same,survivor count,"dose: 12.5 mg/kg/injection, schedule: Q01DX001 (ip), vehicle: saline",0 of 6
same,survivor count,"dose: 25.0 mg/kg/injection, schedule: Q01DX001 (ip), vehicle: saline with Tween-80",0 of 6
same,survivor count,"dose: 25.0 mg/kg/injection, schedule: Q01DX001 (ip), vehicle: saline",0 of 6
same,survivor count,"dose: 50.0 mg/kg/injection, schedule: Q01DX001 (ip), vehicle: saline",0 of 6
same,survivor count,"dose: 100.0 mg/kg/injection, schedule: Q01DX001 (ip), vehicle: saline with Tween-80",0 of 6
same,survivor count,"dose: 100.0 mg/kg/injection, schedule: Q01DX001 (ip), vehicle: saline",0 of 6
same,survivor count,"dose: 200.0 mg/kg/injection, schedule: Q01DX001 (ip), vehicle: saline with Tween-80",0 of 6
same,survivor count,"dose: 200.0 mg/kg/injection, schedule: Q01DX001 (ip), vehicle: saline",0 of 6
same,survivor count,"dose: 400.0 mg/kg/injection, schedule: Q01DX001 (ip), vehicle: saline with Tween-80",1 of 6
same,survivor count,"dose: 400.0 mg/kg/injection, schedule: Q01DX001 (ip), vehicle: saline",0 of 6
CN(C)Cc1c[nH]c2ccsc12,survivor count,"dose: 400.0 mg/kg/injection, schedule: Q04DX003 (ip), vehicle: saline with Tween-80",6 of 6
CCCOc1ccc(-c2nc(-c3ccc(N=Cc4ccc(N(CCOS(C)(=O)=O)CCOS(C)(=O)=O)cc4C)cc3)cs2)cc1,T/C,"dose: 33.0 mg/kg/injection, schedule: Q01DX009 (ip), vehicle: Klucel (hydroxypropylcellulose) (HPC)",131 % of control
same,T/C,"dose: 50.0 mg/kg/injection, schedule: Q01DX009 (ip), vehicle: Klucel (hydroxypropylcellulose) (HPC)",125 % of control
CC(C)CCCC(C)C1CCC2C3CC=C4CC(C5C(=O)NC(=O)NC5=O)CCC4(C)C3CCC12C (stereo not given),survivor count,"dose: 100.0 mg/kg/injection, schedule: Q04DX003 (ip), vehicle: saline with Tween-80",6 of 6
same,survivor count,"dose: 200.0 mg/kg/injection, schedule: Q04DX003 (ip), vehicle: saline with Tween-80",6 of 6
CNC(=O)O/N=C/c1ccc([N+](=O)[O-])cc1,survivor count,"dose: 300.0 mg/kg/injection, schedule: Q01DX001 (ip), vehicle: saline",1 of 6
COc1ccc(-c2cc(C(=O)O)c3cccc(C(F)(F)F)c3n2)cc1,survivor count,"dose: 200.0 mg/kg/injection, schedule: Q04DX003 (ip), vehicle: saline",6 of 6
same,survivor count,"dose: 400.0 mg/kg/injection, schedule: Q04DX003 (ip), vehicle: saline",0 of 6
O=C(c1ccc(Cl)cc1)C(C(c1ccc([N+](=O)[O-])cc1)N1CCCCC1)N1CCCCC1 (stereo not given),survivor count,"dose: 100.0 mg/kg/injection, schedule: Q01DX001 (ip), vehicle: Klucel (hydroxypropylcellulose) (HPC)",6 of 6
same,survivor count,"dose: 200.0 mg/kg/injection, schedule: Q01DX001 (ip), vehicle: Klucel (hydroxypropylcellulose) (HPC)",5 of 6

# Source: PubChem BioAssay AID248 (DTP/NCI, 2004)
